# Data as given in PubChem BioAssay AID1671195 (Yale University, 2021).
# Assay: 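Knockdowns that increase or decrease uptake of fluorescent LDL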 (primary screen)
# Cells: human Huh7 hepatoma cells
# Knock-down reagent: siRNA pool against human genes, 18 nM
# Duration: about 2 to 2.5 days of knockdown, then 8 h LDL uptake
# Challenge: DiI-labelled LDL at 30 µg/ml for 8 h, in lipoprotein-deficient serum medium
# Measurement: 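Per-cell DiI-LDL intensity by automated imaging; well means scaled to the plate median and given as a robust z-score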
# Reading the numbers: robust z-score: higher = more LDL uptake after knockdown
# Rule for the call: 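Active when two or more replicates show a robust z-score above 2 or below -2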
# Here is one part, drawn at random, of about 22,000 deposited reagents. Of all reagents, about 1,510 (6.9%) are marked active. 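Active includes knockdowns raising or lowering LDL uptake; positive z-scores mean more uptake, negative mean less.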 Unmarked entries are inactive. Reagent sequences are not shown.
"robust z-score, replicate 1","robust z-score, replicate 2","robust z-score, replicate 3",gene symbol,PubChem SID
-0.956 (active),-2,-2.05,ZSWIM5 (zinc finger SWIM-type containing 5),SID442884270
1.46,0.248,0.933,NCR2 (natural cytotoxicity triggering receptor 2),SID442887587
-1.53,-1.58,-1.15,ACVR2B (activin A receptor type 2B),SID442903884
1.43,1.07,1.6,TMEM203 (transmembrane protein 203),SID442885798
0.261,0.649,1.32,PLRG1 (pleiotropic regulator 1),SID442888314
-0.221,-0.0485,-0.126,PVR (PVR cell adhesion molecule),SID442895090
-0.332,-0.0501,-0.298,MCF2 (MCF.2 cell line derived transforming sequence),SID442895990
0.146,-0.788,-0.566,ACTR3 (actin related protein 3),SID442897590
0.203,0.0583,0.152,SLC39A2,SID442892675
0.478,0.103,0.784,OR52E2 (olfactory receptor family 52 subfamily E member 2),SID442890160
-0.722,-0.266,-0.341,PLEKHA1 (pleckstrin homology domain containing A1),SID442897950
-0.0863,-1.03,0.0999,LOC401584 (retired record),SID442897019
-1.4,-1.46,-0.678,ZNF512 (zinc finger protein 512),SID442902933
0.235,0.0386,0.345,DOLPP1 (dolichyldiphosphatase 1),SID442892115
-0.651,-0.02,-0.681,PLCL2 (phospholipase C like 2),SID442898005
-0.415,1.46,0.374,REM1 (RRAD and GEM like GTPase 1),SID442890026
3.08 (active),2.74,2.05,TMEM270 (transmembrane protein 270),SID442883584
-0.346,-1.16,-0.867,GAST (gastrin),SID442900663
-1.04,-1.1,-1.82,MRPL52 (mitochondrial ribosomal protein L52),SID442903524
-0.22,0.0583,0.194,PYGL (glycogen phosphorylase L),SID442893783
-0.467,-0.0708,-0.267,"ERCC2 (ERCC excision repair 2, TFIIH core complex helicase subunit)",SID442896400
-0.49,-0.874,-1.07,SEPTIN9 (septin 9),SID442900821
-1.02,-1.39,-2.1,FLYWCH1 (FLYWCH-type zinc finger 1),SID442904144
0.567,-0.35,-0.469,CTSS (cathepsin S),SID442894631
-1.15,-0.864,-1.46,RPL35P1 (ribosomal protein L35 pseudogene 1),SID442902835
-0.047,0.212,-0.365,LRP8 (LDL receptor related protein 8),SID442894467
-0.181,0.907,-0.122,"GCNT3 (glucosaminyl (N-acetyl) transferase 3, mucin type)",SID442892162
0.196,0.527,1.91,UFSP2 (UFM1 specific peptidase 2),SID442887614
-1.08,-1.38,-0.749,LOC442282 (retired record),SID442902426
-0.0212,0.963,0.519,CRYGA (crystallin gamma A),SID442889929
-0.271,-0.135,-0.175,LOC442398 (retired record),SID442895678
0.342,0.915,1.28,NOA1 (nitric oxide associated 1),SID442887762
2.22 (active),1.75,2.19,CCDC196 (coiled-coil domain containing 196),SID442884024
-1.13,-0.494,-0.678,EIF2B2 (eukaryotic translation initiation factor 2B subunit beta),SID442900484
-0.952,-1.06,-0.619,SLC9C2,SID442901281
-0.682,-0.527,-0.585,LOC387717 (retired record),SID442899262
0.0087,0.0563,-0.424,RFXANK (regulatory factor X associated ankyrin containing protein),SID442894980
1.22,1.42,0.675,ZMYND12 (zinc finger MYND-type containing 12),SID442886624
-1.34,-2.36,-0.931,LOC143158 (retired record),SID442904247
-1.56,-1.16,-2.07,C1QC (complement C1q C chain),SID442904349
-0.848,-0.952,-0.13,MYH7B (myosin heavy chain 7B),SID442899610
0.39,0.216,0.68,ETV3L (ETS variant transcription factor 3 like),SID442890352
0.777,1.12,1,"C22orf46P (chromosome 22 open reading frame 46, pseudogene)",SID442887181
2.1 (active),1.62,2.03,LOC400969 (retired record),SID442884133
0.799,1.34,1.24,ZPR1 (ZPR1 zinc finger),SID442886558
0.899,0.942,1.87,RGCC (regulator of cell cycle),SID442886185
0.829,0.846,0.474,ADAMTS16 (ADAM metallopeptidase with thrombospondin type 1 motif 16),SID442888456
0.318,0.935,1.13,DTD2 (D-aminoacyl-tRNA deacylase 2),SID442888028
0.638,1.2,0.133,NEK10 (NIMA related kinase 10),SID442888820
-1.13,-1.29,-1.4,NEK10 (NIMA related kinase 10),SID442903317
1.46,1.3,0.959,KLHDC1 (kelch domain containing 1),SID442886184
-0.165,-1.01,-0.0123,"DEGS1 (delta 4-desaturase, sphingolipid 1)",SID442897539
0.275,0.54,0.48,MFHAS1 (multifunctional ROCO family signaling regulator 1),SID442890332
0.151,1.98,0.453,RBM7 (RNA binding motif protein 7),SID442887699
-0.289,-0.226,-0.237,OASL (2'-5'-oligoadenylate synthetase like),SID442896231
-0.626,-0.615,0.297,ZNF57 (zinc finger protein 57),SID442896809
-0.111,0.0089,0.0916,TMC5 (transmembrane channel like 5),SID442893919
-0.108,-0.483,-0.058,PCBP1-AS1 (PCBP1 antisense RNA 1),SID442895886
0.0515,0.518,0.335,NUDT4 (nudix hydrolase 4),SID442891314
-0.89,-0.245,-0.437,KIF7 (kinesin family member 7),SID442898659
1.13,1.96,1.42,"ELANE (elastase, neutrophil expressed)",SID442885460
-1.12,-2.13,-1.32,DDX42 (DEAD-box helicase 42),SID442904197
0.709,0.132,0.941,ARSA (arylsulfatase A),SID442889214
-0.198,0.406,0.654,RNF170 (ring finger protein 170),SID442891436
-0.505,0.88,0.155,ADGRA3 (adhesion G protein-coupled receptor A3),SID442892359
-1.15,-0.693,-0.937,ZFAND3 (zinc finger AN1-type containing 3),SID442901609
-0.109,-0.301,0.11,THOP1 (thimet oligopeptidase 1),SID442894785
0.879,0.953,0.964,APOBEC3G (apolipoprotein B mRNA editing enzyme catalytic subunit 3G),SID442887349
